This is one part of the list. Shown are side measurements of this screen, not its main read-out; they come without a call. Most of these compounds were active or inconclusive in the main read-out, so they are no random draw. Potencies come from curve fits of mixed quality, noted in brackets.
Experiment: qHTS Assay for Lipid Storage Modulators in Drosophila S3 Cells;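 as to cell number change: cells counted by Cell Tracker Red CMTPX staining in the red channel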
Settings: BODIPY lipid droplet fluorescence, 18-24 h; for cell number change: measured here: cell count max response, cells fed with added oleic acid
How it was run: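 Drosophila S3 cells got compounds at several concentrations plus oleic acid (400 uM solution). Laser-scanning cytometry with 488 nm excitation read lipid droplets at 500-530 nm and cells at 575-640 nm. Percent activity was relative to 20 uM Triacsin C.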

[1] = measured here: lipid fluorescence (Fed channel) AC50, cells fed with added oleic acid
[2] = measured here: cell number channel AC50, cells fed with added oleic acid

Row | SMILES | cell number change | AC50 [1] | AC50 [2]
1 | Cc1nc(Cl)c2c(n1)NC(=O)CO2 | 17.5% | 0.184 µM [falling, full curve, poor fit] | –
2 | COc1ccc(NC(C)=O)cc1NC(C)C(=O)Nc1cc(C(F)(F)F)ccc1N1CCOCC1 (stereo not drawn) | 21.6% | 1.84 µM [rising, full curve, poor fit] | –
3 | N#CC1=C2SC=C(c3ccc(Br)cc3)N2CCCC1=O | 38.8% | 29.1 µM [rising, single point] | 29.1 µM [rising, single point]
4 | NCCCn1c(C(=O)c2cc(Cl)c(N)c(Cl)c2)c2ccccc2[n+]1[O-] | 10.5% | 6.51 µM [falling, single point] | –
5 | Cc1nc(NC(=O)c2ccc(-c3cc4ccccc4oc3=O)cc2)ccc1Br | 117% | 0.146 µM [rising, full curve, poor fit] | 29.1 µM [rising, single point]
6 | CCc1noc(C)c1C(=O)Nc1ncc(C)s1 | – | 0.82 µM [rising, single point] | –
7 | O=C(Nc1ccc2c(c1)OCO2)C1CCCCN1S(=O)(=O)c1ccccc1 (stereo not drawn) | – | 0.00651 µM [rising, full curve] | 0.0731 µM [rising, full curve, poor fit]
8 | O=C(COC(=O)CNC(=O)c1ccc(Cl)cc1Cl)NC1CCCCC1 | 14.2% | 23.1 µM [rising, partial curve] | –
9 | CC(=O)c1cccc(NC(=O)[C@@H](NC(N)=O)C(C)C)c1 | -7.38% | – | –
10 | CCC(C)(C)NCC(=O)Nc1ccc(OC(F)(F)F)cc1 | -46.7% | – | 18.4 µM [falling, partial curve, poor fit]
11 | N#Cc1ccc(C(=O)OCC(=O)N2CCOCC2)cc1 | 15.4% | – | 0.00651 µM [rising, full curve, poor fit]
12 | Cc1ccc(C)n1NC(=O)c1cccc(Cl)c1 | – | 0.58 µM [falling, single point] | –
13 | Cc1c(CC(=O)NCCCC(=O)O)c(=O)oc2cc3c(cc12)CCC(C)(C)O3 | -14.8% | – | –
14 | COC(=O)c1c(NC(=O)COC(=O)CC(NC(C)=O)c2ccccc2)sc(C)c1C (stereo not drawn) | 26.6% | – | 2.06 µM [rising, full curve, poor fit]
15 | CC1=C([N+](=O)[O-])C(c2ccc3c(c2)OCO3)N(C)C(=O)N1C (stereo not drawn) | 23.9% | – | 0.82 µM [rising, full curve, poor fit]
16 | O=C(O)CNC(=O)c1ccccc1 | -38.9% | 23.1 µM [falling, single point] | 0.058 µM [falling, full curve]
17 | COc1cccc2[nH]c(C(=O)NCCc3ccccc3)cc12 | 22% | – | –
18 | COCCCn1c(=O)c2sccc2n2c(CCCC(=O)NCc3ccccc3OC)nnc12 | 18.7% | 6.51 µM [falling, single point] | –
19 | Cc1sc(-c2ccccn2)nc1OC(=O)c1ccc(Cl)c(Cl)c1 | 0.62% | 0.146 µM [falling, full curve] | –
20 | CC(=O)C1=C(O)C(=O)N(c2ccc(C(=O)O)cc2)C1c1ccccc1 (stereo not drawn) | -6.87% | – | –
21 | O=C(NCCCN1CCCC1=O)Nc1ccc(Cl)cc1Cl | 26.1% | 4.47 µM [rising, partial curve, poor fit] | –

Entries above that have a COOH group:
Row | SMILES | cell number change | AC50 [1] | AC50 [2]
13 | Cc1c(CC(=O)NCCCC(=O)O)c(=O)oc2cc3c(cc12)CCC(C)(C)O3 | -14.8% | – | –
16 | O=C(O)CNC(=O)c1ccccc1 | -38.9% | 23.1 µM [falling, single point] | 0.058 µM [falling, full curve]
20 | CC(=O)C1=C(O)C(=O)N(c2ccc(C(=O)O)cc2)C1c1ccccc1 (stereo not drawn) | -6.87% | – | –

Additional results follow:

Row | SMILES | cell number change | AC50 [1] | AC50 [2]
22 | COc1ccccc1N1CCN(CCCCCCOc2ccc(F)cc2)CC1 | -30.8% | – | 29.1 µM [falling, single point]
23 | C=CCn1c(Cc2cccs2)nnc1SC/C=C/c1ccccc1 | 34.7% | – | 0.13 µM [rising, full curve, poor fit]
24 | Cc1[nH]nc2c1C(Cc1ccccc1)C(C#N)=C(N)O2 (stereo not drawn) | 2.52% | 0.58 µM [rising, single point] | –
25 | Cc1cc(Cl)c(S(=O)(=O)Nc2ccon2)cc1OCC(=O)NC1CCCCC1 | -33.3% | 2.06 µM [falling, partial curve] | 32.6 µM [falling, single point]
26 | COc1cccc(CN2C(=O)c3cccc(N)c3C2=O)c1 | 35.6% | – | 10.3 µM [rising, partial curve]
27 | Cc1ccccc1C(=O)c1cccn1CC(=O)NCCCN1CCCCC1 | 46.9% | 29.1 µM [rising, single point] | –
28 | CC(C)(C)OC(=O)N1CCC(C(=O)N[C@@H](Cc2ccccc2)C(=O)O)(c2ccccc2)CC1 | -19.4% | 36.6 µM [falling, partial curve, poor fit] | –
29 | NS(=O)(=O)c1cccnc1Nc1cccc(C(F)(F)F)c1 | – | 0.164 µM [rising, full curve, poor fit] | 1.3 µM [rising, full curve, poor fit]
30 | COc1cccc(NC(=O)CN(C)C(=O)Cn2[nH]c(=O)c3ccccc3c2=O)c1 | -18.6% | 0.13 µM [falling, full curve, poor fit] | –
31 | O=c1c2cccnc2[nH]c(=S)n1CCCN1CCN(c2ccc(F)cc2)CC1 | -28.9% | – | –
32 | CCOC(=O)CSc1nnc(Cc2ccccc2)n1Cc1ccco1 | -19.3% | – | 0.731 µM [falling, full curve, poor fit]
33 | COc1ccc(C(C)=O)cc1COC(=O)Cc1n[nH]c(=O)c2ccccc12 | 26.1% | 1.03 µM [rising, partial curve, poor fit] | –
34 | N#Cc1nc(Cc2ccccc2)oc1N1CCN(c2ccccc2)CC1 | -9.42% | – | –
35 | S=c1[nH]nc(C2CCCCC2)n1/N=C/c1ccc(Br)cc1 | -52% | 16.4 µM [falling, partial curve] | 14.6 µM [falling, partial curve]
36 | O=C(NCc1cc(C(F)(F)F)cc(C(F)(F)F)c1)C1CC(c2cccc([N+](=O)[O-])c2)=NO1 (stereo not drawn) | – | – | 5.8 µM [falling, single point]
37 | COC(=O)NNC(=O)C12CC3CC(CC(C3)C1)C2 | -11.2% | – | –
38 | COc1nnc(-c2ccc(C)c(S(=O)(=O)N(C)C)c2)c2ccccc12 | -19.6% | 18.4 µM [falling, partial curve] | –
39 | CCOc1ccc2[nH]c(=O)c(CN(Cc3ccccc3OC)C(=O)c3ccccc3)cc2c1 | 35.3% | 16.4 µM [rising, partial curve] | 20.6 µM [rising, single point]
40 | CC(Sc1nc2cc(Cl)ccc2s1)C(=O)Nc1cccc(S(=O)(=O)N2CCOCC2)c1 (stereo not drawn) | – | 29.1 µM [falling, single point] | –
41 | Cc1ccc(S(=O)(=O)/N=C/c2ccco2)cc1 | 0.172% | 10.3 µM [rising, partial curve] | –
42 | O=C(CSC1=NC(=O)C(c2ccccc2)C(=O)N1)Nc1cccc(Cl)c1 (stereo not drawn) | -101% | 23.1 µM [falling, single point] | 25.9 µM [falling, single point]

Row | SMILES | cell number change | AC50 [1] | AC50 [2]
43 | O=C(NCc1ccccc1)NC(=O)c1ccccc1F | -18.3% | 29.1 µM [rising, single point] | –
44 | Cc1ccc(NC(=S)Nn2cnnc2)c(C)c1 | 25.7% | 6.51 µM [rising, single point] | –
45 | O=S(=O)(NCc1csc(-c2cccnc2)n1)c1ccc(F)cc1 | -22.6% | 23.1 µM [falling, single point] | –
46 | Cn1c(-c2nonc2N)nc2ccccc21 | – | 6.51 µM [rising, partial curve] | –
47 | CCOC(=O)c1[nH]cnc1C(=O)Nc1ccncc1 | 12.6% | 0.058 µM [rising, full curve, poor fit] | –
48 | O=[N+]([O-])c1ccc(/C=C/c2ccc3cccc(O)c3n2)cc1 | -20.3% | 18.4 µM [falling, single point] | –
49 | CCn1nnnc1NCc1c(OC)ccc2ccccc12 | 19.4% | – | 0.0326 µM [rising, full curve, poor fit]
50 | COc1ccc(N2CCN(c3ncnc4scc(-c5ccccc5)c34)CC2)cc1 | -22.4% | 35.5 µM [falling, single point] | –
51 | Cc1cccc(NC(=O)CCCSc2nc3ccccc3[nH]2)c1 | 2.5% | 0.206 µM [falling, full curve, poor fit] | –
52 | C#CC(C)(CC)NC(=O)c1cc2nc(C3CC3)cc(C(F)(F)F)n2n1 (stereo not drawn) | – | 0.13 µM [rising, full curve, poor fit] | –
53 | O=C(NCc1ccccc1)c1cc[n+](Cc2ccccc2)cc1 | -60.5% | – | 0.259 µM [falling, full curve, poor fit]
54 | COC(=O)c1cc2sccc2n1CC(=O)Nc1cc(OC)cc(OC)c1 | 38.7% | – | 29.1 µM [rising, single point]
55 | CCOC(=O)c1cc(C#N)c(SC(C)C(=O)NC2CCCCC2)nc1C (stereo not drawn) | -22.3% | – | 3.66 µM [falling, single point]
56 | Cc1ccc(S(=O)(=O)N2CCCC2C(=O)N2CCCCCC2)cc1 (stereo not drawn) | -85.9% | 3.66 µM [falling, full curve] | 3.66 µM [falling, full curve]
57 | CN1CCN(S(=O)(=O)c2cccc(C(=O)NC3(C)CCS(=O)(=O)C3)c2)CC1 (stereo not drawn) | -61.4% | 0.92 µM [falling, full curve] | 0.92 µM [falling, full curve]
58 | CC(=O)Oc1ccc(C(=O)Nc2ccccc2C(=O)NCC(C)C)cc1 | 20.1% | – | –
59 | CNS(=O)(=O)c1cccc(C(=O)OCc2csc(-c3ccccc3)n2)c1 | 29.2% | 18.4 µM [rising, partial curve] | –
60 | CC(C)C(=O)NCCc1nc2ccccc2n1CCc1ccccc1 | 1.27% | 1.84 µM [falling, partial curve] | –
61 | N#CC(C#N)=Cc1cccn1-c1ccc(C(=O)O)cc1 | 1.06% | 0.116 µM [rising, full curve, poor fit] | 0.164 µM [rising, full curve]
